Experimental data reported in the supplement of paper PMC10849652.
Some of the results follow.

Protein sequences, listed by entry. Tags and fused reporters are not part of them. Lines headed by an entry give the natural chain unless they say otherwise; changes in a name come on top.
UniProt P08195: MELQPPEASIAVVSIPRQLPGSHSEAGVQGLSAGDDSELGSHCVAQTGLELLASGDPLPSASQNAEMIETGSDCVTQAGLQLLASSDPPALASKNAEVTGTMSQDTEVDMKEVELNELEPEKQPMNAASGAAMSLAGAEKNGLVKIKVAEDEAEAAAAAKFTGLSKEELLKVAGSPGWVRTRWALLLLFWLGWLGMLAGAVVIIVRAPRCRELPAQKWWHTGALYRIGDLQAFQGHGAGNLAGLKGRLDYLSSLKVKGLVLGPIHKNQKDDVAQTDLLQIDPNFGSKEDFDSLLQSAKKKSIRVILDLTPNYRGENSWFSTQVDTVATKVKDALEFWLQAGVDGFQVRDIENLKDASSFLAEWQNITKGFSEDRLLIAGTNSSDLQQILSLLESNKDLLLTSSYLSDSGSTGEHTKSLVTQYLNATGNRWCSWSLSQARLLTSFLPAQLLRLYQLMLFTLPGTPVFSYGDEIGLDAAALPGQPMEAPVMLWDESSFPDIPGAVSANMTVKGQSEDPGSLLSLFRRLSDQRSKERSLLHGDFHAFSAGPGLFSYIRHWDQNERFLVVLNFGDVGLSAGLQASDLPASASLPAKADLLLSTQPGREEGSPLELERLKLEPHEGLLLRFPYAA
UniProt P05141: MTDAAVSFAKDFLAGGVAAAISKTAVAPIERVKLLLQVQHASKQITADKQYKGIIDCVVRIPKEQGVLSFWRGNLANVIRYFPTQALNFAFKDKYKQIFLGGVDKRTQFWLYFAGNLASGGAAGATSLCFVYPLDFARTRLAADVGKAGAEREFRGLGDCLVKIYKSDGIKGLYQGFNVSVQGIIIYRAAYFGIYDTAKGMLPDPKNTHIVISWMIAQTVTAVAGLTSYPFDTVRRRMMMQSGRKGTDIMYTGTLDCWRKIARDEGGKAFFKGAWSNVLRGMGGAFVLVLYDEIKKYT
UniProt Q96CW6: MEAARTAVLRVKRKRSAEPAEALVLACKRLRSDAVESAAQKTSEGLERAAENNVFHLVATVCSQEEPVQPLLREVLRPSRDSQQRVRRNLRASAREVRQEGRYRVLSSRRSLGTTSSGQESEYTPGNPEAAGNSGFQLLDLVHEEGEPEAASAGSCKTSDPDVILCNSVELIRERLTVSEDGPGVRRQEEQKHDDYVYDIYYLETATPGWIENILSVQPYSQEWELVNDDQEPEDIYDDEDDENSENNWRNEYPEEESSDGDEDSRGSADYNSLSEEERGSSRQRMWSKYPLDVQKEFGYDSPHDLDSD
UniProt Q15796, whole entry, looked up: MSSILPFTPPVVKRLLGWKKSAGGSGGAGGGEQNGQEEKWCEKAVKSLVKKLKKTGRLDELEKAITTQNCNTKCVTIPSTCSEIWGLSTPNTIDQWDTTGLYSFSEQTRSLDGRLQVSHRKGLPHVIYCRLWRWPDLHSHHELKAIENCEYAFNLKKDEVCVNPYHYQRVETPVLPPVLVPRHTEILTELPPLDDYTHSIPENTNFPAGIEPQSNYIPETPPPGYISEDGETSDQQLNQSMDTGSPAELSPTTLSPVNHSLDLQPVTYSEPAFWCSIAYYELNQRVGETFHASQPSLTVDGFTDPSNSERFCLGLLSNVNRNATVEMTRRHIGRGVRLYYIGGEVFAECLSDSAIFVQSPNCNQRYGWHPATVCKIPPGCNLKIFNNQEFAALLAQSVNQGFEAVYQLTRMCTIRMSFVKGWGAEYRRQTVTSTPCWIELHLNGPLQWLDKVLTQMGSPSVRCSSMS
UniProt Q9ULF5: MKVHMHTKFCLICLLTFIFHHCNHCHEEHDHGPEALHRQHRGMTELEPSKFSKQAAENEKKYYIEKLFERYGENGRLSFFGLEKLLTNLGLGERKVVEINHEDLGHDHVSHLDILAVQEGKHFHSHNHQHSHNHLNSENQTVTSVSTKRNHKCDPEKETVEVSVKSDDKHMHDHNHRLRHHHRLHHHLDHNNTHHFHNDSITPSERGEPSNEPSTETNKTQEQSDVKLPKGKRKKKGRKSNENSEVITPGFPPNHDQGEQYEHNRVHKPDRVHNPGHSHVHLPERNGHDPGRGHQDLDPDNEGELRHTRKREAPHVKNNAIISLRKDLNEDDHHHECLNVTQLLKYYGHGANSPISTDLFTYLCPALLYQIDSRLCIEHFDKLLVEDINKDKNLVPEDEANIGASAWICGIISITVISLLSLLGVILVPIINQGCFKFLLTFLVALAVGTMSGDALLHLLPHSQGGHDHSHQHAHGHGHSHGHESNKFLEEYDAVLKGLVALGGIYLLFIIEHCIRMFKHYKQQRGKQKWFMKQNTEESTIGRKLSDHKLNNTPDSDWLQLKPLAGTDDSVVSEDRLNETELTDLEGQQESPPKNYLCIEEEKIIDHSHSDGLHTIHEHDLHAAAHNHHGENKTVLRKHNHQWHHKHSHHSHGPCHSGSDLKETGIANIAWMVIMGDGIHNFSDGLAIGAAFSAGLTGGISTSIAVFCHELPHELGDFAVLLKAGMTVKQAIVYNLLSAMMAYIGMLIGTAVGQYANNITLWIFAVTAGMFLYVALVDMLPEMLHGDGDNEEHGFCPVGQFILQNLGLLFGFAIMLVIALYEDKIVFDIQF
UniProt Q01650: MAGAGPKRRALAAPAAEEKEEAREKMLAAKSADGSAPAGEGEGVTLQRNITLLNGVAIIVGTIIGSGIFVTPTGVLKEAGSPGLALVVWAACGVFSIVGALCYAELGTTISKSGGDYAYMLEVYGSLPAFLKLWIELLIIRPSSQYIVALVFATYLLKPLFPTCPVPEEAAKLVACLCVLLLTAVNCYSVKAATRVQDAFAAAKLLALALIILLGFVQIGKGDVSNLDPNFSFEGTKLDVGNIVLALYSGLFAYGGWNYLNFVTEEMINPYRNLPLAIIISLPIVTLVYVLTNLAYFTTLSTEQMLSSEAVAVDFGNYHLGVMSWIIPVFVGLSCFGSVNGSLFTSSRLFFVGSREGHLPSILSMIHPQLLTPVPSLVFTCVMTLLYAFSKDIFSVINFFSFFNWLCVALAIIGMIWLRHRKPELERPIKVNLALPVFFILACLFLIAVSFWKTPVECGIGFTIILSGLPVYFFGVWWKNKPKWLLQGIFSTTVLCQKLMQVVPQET
UniProt Q6PML9: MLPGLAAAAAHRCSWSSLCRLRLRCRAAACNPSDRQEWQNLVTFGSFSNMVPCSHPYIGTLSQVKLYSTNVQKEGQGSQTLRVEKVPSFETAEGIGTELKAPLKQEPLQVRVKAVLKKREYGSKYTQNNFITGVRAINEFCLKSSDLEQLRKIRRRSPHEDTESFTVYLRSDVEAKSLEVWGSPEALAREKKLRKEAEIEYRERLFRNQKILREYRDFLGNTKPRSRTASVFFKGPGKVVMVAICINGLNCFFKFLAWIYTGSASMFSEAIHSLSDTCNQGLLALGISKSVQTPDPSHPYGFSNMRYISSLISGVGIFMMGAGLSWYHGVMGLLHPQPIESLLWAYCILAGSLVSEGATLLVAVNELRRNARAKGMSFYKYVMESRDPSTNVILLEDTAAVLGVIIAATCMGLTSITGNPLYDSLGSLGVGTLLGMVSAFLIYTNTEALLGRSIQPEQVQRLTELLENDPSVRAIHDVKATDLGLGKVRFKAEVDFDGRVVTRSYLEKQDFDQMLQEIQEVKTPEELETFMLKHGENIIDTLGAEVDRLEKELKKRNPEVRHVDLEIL
UniProt Q00325: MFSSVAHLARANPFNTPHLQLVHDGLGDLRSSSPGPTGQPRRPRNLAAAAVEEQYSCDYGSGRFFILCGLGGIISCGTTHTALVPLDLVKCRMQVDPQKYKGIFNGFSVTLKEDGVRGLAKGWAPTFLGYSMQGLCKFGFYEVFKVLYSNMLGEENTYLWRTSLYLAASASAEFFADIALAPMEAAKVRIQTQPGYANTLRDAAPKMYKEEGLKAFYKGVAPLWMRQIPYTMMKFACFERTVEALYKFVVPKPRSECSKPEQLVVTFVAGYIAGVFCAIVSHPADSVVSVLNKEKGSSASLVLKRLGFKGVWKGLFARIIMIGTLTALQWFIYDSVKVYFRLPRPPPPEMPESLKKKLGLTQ
UniProt Q8NBI5: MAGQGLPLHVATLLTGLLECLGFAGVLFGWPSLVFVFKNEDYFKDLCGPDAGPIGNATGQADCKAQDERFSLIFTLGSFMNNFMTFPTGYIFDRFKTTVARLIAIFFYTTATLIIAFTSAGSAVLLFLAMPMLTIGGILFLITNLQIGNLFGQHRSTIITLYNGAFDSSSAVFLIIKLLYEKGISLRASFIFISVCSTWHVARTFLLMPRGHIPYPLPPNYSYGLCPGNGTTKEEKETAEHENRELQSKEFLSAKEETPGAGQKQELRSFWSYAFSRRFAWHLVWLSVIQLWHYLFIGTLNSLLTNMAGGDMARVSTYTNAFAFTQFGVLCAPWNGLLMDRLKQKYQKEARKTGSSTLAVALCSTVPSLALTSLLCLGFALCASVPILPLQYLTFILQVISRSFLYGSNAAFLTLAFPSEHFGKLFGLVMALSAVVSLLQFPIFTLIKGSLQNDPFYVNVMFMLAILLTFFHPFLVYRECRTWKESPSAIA
UniProt O43826: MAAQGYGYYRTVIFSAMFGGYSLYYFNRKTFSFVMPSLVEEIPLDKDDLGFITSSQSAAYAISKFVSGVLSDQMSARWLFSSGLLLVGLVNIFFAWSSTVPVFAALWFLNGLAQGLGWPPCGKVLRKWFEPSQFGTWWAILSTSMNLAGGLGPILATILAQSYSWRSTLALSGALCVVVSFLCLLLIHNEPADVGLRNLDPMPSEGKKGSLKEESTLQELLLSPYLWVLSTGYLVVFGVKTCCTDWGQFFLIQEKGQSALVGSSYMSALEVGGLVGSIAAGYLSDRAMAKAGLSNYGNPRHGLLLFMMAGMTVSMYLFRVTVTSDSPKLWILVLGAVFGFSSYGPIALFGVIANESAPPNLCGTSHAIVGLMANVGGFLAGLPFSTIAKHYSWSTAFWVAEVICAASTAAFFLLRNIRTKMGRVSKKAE
UniProt Q9H1U9: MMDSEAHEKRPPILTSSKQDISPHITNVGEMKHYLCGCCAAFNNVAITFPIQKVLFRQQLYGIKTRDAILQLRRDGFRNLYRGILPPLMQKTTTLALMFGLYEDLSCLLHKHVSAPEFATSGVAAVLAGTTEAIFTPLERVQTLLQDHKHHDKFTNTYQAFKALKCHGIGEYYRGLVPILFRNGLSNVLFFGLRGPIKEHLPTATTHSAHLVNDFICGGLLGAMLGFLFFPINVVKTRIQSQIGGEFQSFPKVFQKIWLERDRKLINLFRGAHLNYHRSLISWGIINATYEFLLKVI
UniProt Q9Y6M5: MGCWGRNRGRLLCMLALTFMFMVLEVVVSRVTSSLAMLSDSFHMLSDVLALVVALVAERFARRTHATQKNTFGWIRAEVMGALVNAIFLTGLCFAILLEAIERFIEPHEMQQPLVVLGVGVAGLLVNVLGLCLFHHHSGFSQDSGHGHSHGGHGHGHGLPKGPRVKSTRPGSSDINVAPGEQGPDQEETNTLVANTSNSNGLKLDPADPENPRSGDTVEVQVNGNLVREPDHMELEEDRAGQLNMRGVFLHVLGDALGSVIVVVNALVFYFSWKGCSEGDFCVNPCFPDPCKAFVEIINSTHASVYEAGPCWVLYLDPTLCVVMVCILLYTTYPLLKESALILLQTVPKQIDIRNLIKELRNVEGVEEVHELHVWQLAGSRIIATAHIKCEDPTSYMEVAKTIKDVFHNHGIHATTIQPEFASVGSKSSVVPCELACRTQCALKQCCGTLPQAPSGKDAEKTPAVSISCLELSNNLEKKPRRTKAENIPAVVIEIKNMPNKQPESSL
UniProt Q70HW3: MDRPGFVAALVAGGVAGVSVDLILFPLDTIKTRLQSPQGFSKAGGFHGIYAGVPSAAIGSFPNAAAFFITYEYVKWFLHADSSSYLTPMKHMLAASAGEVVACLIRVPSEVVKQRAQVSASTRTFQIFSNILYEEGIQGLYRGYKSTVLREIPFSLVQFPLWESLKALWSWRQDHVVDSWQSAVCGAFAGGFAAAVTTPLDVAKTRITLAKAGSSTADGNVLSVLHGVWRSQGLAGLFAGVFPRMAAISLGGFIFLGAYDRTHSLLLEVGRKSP
UniProt P11169: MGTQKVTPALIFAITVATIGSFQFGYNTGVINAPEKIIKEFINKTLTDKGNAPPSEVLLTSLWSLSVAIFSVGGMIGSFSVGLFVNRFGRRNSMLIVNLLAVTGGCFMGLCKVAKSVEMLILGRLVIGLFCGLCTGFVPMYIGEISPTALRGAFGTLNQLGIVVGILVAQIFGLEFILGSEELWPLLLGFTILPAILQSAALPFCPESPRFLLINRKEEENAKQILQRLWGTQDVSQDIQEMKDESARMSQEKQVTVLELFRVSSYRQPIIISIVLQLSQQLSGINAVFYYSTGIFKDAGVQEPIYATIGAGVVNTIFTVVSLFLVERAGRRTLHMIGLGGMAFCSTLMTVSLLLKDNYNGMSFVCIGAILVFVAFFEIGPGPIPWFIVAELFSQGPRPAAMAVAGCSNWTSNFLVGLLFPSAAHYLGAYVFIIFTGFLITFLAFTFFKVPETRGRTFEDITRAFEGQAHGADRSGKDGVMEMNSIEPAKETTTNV

Assays:
Assay in all cases: log2 fold change, soluble protein after heating vs DMSO (PISA); higher = thermal stabilisation; K562 lysate, 10 uM; active = over 0.2 and 3.5 SD of the protein, either way, in both replicates (recomputed)
[1] = compound: C1=CC=C(C=C1)[C@H](COC2=CC3=C(C=C2)NC(=O)N3)NC(=O)C4=CC=CN(C4=O)CC5=CC(=C(C=C5)F)F
Summary of the method: (§1)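 K562 pellets were dounce-homogenised in PBS pH 7.4 containing 1 mM MgCl2, and the crude extract, at 1 mg/mL protein, was exposed to 10 μM compound for 30 min. Aliquots were heated for 3 min across 48°C-58°C, pooled, brought to 0.5% NP-40 at 4°C and spun at 21,000xg for 90 min, with the supernatant taken as soluble protein. TMTpro 16plex LC-MS/MS with equalised channel sums quantified that protein. Values are log-two fold changes in thermal stability relative to solvent controls, taken from duplicates.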

[2] = compound: CC1=C(SC2=C1C(=N[C@H](C3=NN=C(N32)C)CC(=O)N)C4=CC=C(C=C4)Cl)C
Summary of the method: as §1

[3] = compound: CC1=C2C(=CC=C1)N=C(N(C2=O)C3=CC=CC=C3C)CN4C=NC5=C(N=CN=C54)N
Summary of the method: as §1

[4] = compound: Cc1sc2c(c1C)C(c1ccc(Cl)cc1)=N[C@@H](CC(=O)OC(C)(C)C)c1nnc(C)n1-2
Summary of the method: as §1

[5] = compound: c1ccc([C@@H]2C[C@H]2NC2CCNCC2)cc1
Summary of the method: as §1

Measured: log2 fold change

SLC25A12 (UniProt O75746)
inactive: [1] 0.038 | [2] -0.011 | [3] -0.04 | [4] 0.024 | [5] -0.015

SLC3A2 isoform 3 (UniProt P08195)
inactive: [1] 0.015 | [2] 0.022 | [3] 0.004 | [4] -0.043 | [5] -0.015

SLC25A17 (UniProt O43808)
inactive: [1] -0.014 | [2] 0.007 | [3] -0.024 | [4] -0.096 | [5] -0.163

SLC25A5 (UniProt P05141)
inactive: [1] -0.033 | [2] -0.003 | [3] -0.019 | [4] 0.062 | [5] 0.11

SLC7A6OS (UniProt Q96CW6)
inactive: [1] 0.037 | [2] -0.026 | [3] -0.02 | [4] 0.025 | [5] -0.261

SMAD2 (UniProt Q15796)
inactive: [1] -0.006 | [2] 0.024 | [3] -0.104 | [4] 0.023 | [5] 0

SLC38A1 (UniProt Q9H2H9)
inactive: [1] 0.055 | [2] -0.116 | [3] 0.06 | [4] -0.116 | [5] -0.128

SLC39A10 (UniProt Q9ULF5)
inactive: [1] 0.034 | [2] -0.014 | [3] 0.031 | [4] 0.018 | [5] -0.028

SLC7A5 (UniProt Q01650)
inactive: [1] 0.019 | [2] -0.027 | [3] 0.003 | [4] -0.061 | [5] -0.231

SLC38A9 (UniProt Q8NBW4)
inactive: [1] 0.17 | [2] -0.126 | [3] 0.088 | [4] -0.004 | [5] 0.139

SLC44A2 (UniProt Q8IWA5)
inactive: [1] 0.136 | [2] -0.076 | [3] -0.037 | [4] 0.094 | [5] 0.124

SLC30A9 (UniProt Q6PML9)
inactive: [1] -0.013 | [2] -0.045 | [3] 0.003 | [4] -0.013 | [5] -0.105

SLC25A3 isoform 2 (UniProt Q00325)
inactive: [1] 0.019 | [2] 0.025 | [3] -0.003 | [4] -0.024 | [5] -0.06

SLC33A1 (UniProt O00400)
inactive: [1] -0.006 | [2] -0.053 | [3] -0.059 | [4] -0.021 | [5] 0.054

SLC43A3 (UniProt Q8NBI5)
inactive: [1] -0.184 | [2] 0.035

SLC25A1 (UniProt P53007)
inactive: [1] 0 | [2] 0.06 | [3] -0.015 | [4] 0.001 | [5] 0.054

SLC9A3R2 (UniProt Q15599)
inactive: [1] 0.015 | [2] 0.013 | [3] 0.066 | [4] -0.013 | [5] -0.092

Reprinted at random: 2 records from the list.
SLC25A1 (UniProt P53007)
inactive: [1] 0 | [2] 0.06 | [3] -0.015 | [4] 0.001 | [5] 0.054

SLC25A3 isoform 2 (UniProt Q00325)
inactive: [1] 0.019 | [2] 0.025 | [3] -0.003 | [4] -0.024 | [5] -0.06

Following part.

SLC4A1 (UniProt P02730)
inactive: [1] -0.009 | [2] 0.017 | [3] 0.127 | [4] -0.039 | [5] 0.025

SLC9A7 (UniProt Q96T83)
inactive: [1] -0.223 | [2] -0.056

SLC6A8 isoform 2 (UniProt P48029)
inactive: [1] 0.112 | [2] -0.036 | [3] 0 | [4] -0.22 | [5] 0.038

SLC37A4 isoform 2 (UniProt O43826)
inactive: [1] 0.071 | [2] -0.008 | [3] 0.002 | [4] -0.082 | [5] -0.12

SLC25A51 (UniProt Q9H1U9)
inactive: [1] -0.015 | [2] 0.014 | [3] -0.009 | [4] 0.117 | [5] 0.056

SLC2A4 (UniProt P14672)
inactive: [1] -0.021 | [2] -0.003 | [3] 0.183 | [4] 0.004 | [5] -0.029

SLC30A1 (UniProt Q9Y6M5)
inactive: [1] 0.07 | [2] -0.001 | [3] 0.022 | [4] -0.02 | [5] -0.019

SLC25A26 (UniProt Q70HW3)
inactive: [1] 0.017 | [2] -0.074 | [3] 0.029 | [4] -0.078 | [5] -0.081

SLC25A15 (UniProt Q9Y619)
inactive: [1] 0.023 | [2] 0.002 | [3] -0.03 | [4] -0.026 | [5] -0.059

SLC43A3 isoform 2 (UniProt Q8NBI5)
inactive: [1] 0.047 | [2] -0.065 | [3] 0.015 | [4] -0.039 | [5] 0.006

SLC2A3 (UniProt P11169)
inactive: [1] -0.025 | [2] 0.024 | [3] -0.004 | [4] 0.022 | [5] 0.001
